Assay [1] deals with androgen receptor (human (endogenous in WM1366, SKMEL28, SKMEL5)) (UniProt P10275). Description: proximity ligation; Duolink kit on fixed, permeabilised melanoma cells with pairs of primary antibodies; puncta per cell counted; cells with or without shRNA-mediated AR gene silencing.
The target is the same in assay [2]. Kind of assay: condition: only cells treated with AZD3514 (10 µM for 48 h); proximity ligation; Duolink PLA of AR and Ku70 in WM1366, SKMEL28 and SKMEL5 cells treated with the AR inhibitor AZD3514 (10 µM for 48 h).
The target is the same in assay [3]. Kind of assay: co-IP; WM1366 lysate (mild sonication, extensive DNase I digestion), 500 µg lysate with 4 µg anti-AR (5153S) or anti-RNA pol II (ab26721) in co-IP buffer (50 mM Tris-HCl pH 7.4, 150 mM NaCl, 1 mM EDTA, 1% NP-40, 1% Na-deoxycholate, 0.05% SDS) 8 h at 4°C, Protein A magnetic beads; rabbit IgG as mock; immunoblot. In general terms: Immunoblotting shows a protein as a band on a membrane.

Sequences of proteins named here, by UniProt entry; tags and fusion partners are left off.
UniProt P10275: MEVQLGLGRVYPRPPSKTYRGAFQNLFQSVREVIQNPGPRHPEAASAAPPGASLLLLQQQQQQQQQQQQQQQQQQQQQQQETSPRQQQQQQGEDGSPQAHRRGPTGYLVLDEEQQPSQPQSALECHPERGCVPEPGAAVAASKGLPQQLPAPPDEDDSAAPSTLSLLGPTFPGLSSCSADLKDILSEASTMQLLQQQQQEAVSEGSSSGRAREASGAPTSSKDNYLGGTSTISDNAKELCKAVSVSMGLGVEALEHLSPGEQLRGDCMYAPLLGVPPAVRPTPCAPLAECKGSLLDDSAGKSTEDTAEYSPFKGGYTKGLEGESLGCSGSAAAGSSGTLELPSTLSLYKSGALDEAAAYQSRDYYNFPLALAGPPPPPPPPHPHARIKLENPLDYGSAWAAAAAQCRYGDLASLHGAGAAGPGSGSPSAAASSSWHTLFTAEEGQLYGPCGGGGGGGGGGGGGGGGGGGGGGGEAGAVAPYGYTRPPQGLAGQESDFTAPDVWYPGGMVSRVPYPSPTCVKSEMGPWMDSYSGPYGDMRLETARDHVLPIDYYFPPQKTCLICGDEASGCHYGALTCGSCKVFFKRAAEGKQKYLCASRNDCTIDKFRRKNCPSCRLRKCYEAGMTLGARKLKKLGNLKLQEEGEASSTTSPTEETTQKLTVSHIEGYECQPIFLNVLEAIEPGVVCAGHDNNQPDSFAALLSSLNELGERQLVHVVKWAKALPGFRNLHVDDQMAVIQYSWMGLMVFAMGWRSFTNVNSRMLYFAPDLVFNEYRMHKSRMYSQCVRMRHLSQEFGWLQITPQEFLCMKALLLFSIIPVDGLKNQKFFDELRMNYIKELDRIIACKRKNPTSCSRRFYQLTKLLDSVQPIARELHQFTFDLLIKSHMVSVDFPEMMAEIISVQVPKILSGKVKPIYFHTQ
UniProt P13010: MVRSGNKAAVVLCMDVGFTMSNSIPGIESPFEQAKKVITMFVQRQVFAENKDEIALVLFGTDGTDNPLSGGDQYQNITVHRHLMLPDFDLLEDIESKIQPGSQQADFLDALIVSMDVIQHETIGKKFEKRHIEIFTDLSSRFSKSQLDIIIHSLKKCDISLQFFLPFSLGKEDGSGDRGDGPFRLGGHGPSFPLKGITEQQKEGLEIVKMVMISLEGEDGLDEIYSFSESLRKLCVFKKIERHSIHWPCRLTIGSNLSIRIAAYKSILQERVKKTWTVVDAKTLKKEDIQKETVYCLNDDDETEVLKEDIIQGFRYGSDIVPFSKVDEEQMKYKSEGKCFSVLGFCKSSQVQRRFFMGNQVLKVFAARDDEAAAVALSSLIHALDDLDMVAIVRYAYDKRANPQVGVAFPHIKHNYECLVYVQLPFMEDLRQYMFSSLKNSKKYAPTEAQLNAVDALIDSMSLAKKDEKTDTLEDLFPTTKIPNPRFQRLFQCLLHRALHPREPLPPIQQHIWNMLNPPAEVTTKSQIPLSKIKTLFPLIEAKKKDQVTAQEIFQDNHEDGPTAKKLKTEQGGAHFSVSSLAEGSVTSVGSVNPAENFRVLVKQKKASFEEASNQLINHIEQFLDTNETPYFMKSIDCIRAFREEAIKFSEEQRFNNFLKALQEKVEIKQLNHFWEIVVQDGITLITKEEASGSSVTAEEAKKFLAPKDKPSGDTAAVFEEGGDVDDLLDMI
UniProt P12956: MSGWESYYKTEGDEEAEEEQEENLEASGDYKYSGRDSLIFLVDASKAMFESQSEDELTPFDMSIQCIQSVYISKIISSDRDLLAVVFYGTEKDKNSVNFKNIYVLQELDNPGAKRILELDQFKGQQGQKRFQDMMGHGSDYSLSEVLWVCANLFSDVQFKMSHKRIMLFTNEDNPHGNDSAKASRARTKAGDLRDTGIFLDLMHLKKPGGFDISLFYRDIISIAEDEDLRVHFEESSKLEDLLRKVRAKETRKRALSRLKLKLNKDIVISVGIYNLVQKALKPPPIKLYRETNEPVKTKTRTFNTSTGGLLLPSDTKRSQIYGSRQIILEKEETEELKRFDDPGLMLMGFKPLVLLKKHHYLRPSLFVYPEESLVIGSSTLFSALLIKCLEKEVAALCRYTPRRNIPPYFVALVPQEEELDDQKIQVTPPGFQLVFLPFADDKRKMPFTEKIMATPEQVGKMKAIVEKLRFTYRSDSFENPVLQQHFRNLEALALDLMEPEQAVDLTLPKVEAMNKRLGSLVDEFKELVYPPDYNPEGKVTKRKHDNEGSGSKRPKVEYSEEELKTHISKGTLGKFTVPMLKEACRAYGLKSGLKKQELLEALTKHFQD

This is an account of results in paper PMC7596884.

Results are given in words; binding and its absence hold for the method and conditions named. Binding seen in cells or lysates may run through a third protein. Some results given as binding are weak or reduced against the parent protein; the word gives no strength.

Regarding Ku80 (from UniProt P13010 1-732), the binding entry in assay [1] is “binds”.
With Ku70 (from UniProt P12956 1-609), the binding result was “no binding” in assay [2], “binds” in assay [1] and “binds” in assay [3].
